{"sequences": {"note": "Chains of the proteins cited; added tags and fusions are not shown. Lines headed by an entry give the natural chain unless they say otherwise; changes in a name come on top.", "UniProt P31949": "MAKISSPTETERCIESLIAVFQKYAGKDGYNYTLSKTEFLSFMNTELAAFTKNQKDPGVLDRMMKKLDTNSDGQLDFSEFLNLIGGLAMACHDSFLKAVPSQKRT", "UniProt Q96EU6": "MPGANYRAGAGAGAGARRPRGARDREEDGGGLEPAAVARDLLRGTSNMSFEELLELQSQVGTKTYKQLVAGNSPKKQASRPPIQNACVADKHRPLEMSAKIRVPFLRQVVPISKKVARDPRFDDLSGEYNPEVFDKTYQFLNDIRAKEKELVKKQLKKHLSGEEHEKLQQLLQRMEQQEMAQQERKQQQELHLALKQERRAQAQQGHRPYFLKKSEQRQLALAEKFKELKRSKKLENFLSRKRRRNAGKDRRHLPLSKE", "UniProt P67812": "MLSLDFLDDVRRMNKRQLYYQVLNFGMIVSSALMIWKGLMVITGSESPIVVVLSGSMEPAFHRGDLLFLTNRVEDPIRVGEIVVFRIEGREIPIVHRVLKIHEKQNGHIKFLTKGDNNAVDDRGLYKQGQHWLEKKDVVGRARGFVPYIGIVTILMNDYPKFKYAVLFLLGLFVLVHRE", "UniProt Q9UPN6": "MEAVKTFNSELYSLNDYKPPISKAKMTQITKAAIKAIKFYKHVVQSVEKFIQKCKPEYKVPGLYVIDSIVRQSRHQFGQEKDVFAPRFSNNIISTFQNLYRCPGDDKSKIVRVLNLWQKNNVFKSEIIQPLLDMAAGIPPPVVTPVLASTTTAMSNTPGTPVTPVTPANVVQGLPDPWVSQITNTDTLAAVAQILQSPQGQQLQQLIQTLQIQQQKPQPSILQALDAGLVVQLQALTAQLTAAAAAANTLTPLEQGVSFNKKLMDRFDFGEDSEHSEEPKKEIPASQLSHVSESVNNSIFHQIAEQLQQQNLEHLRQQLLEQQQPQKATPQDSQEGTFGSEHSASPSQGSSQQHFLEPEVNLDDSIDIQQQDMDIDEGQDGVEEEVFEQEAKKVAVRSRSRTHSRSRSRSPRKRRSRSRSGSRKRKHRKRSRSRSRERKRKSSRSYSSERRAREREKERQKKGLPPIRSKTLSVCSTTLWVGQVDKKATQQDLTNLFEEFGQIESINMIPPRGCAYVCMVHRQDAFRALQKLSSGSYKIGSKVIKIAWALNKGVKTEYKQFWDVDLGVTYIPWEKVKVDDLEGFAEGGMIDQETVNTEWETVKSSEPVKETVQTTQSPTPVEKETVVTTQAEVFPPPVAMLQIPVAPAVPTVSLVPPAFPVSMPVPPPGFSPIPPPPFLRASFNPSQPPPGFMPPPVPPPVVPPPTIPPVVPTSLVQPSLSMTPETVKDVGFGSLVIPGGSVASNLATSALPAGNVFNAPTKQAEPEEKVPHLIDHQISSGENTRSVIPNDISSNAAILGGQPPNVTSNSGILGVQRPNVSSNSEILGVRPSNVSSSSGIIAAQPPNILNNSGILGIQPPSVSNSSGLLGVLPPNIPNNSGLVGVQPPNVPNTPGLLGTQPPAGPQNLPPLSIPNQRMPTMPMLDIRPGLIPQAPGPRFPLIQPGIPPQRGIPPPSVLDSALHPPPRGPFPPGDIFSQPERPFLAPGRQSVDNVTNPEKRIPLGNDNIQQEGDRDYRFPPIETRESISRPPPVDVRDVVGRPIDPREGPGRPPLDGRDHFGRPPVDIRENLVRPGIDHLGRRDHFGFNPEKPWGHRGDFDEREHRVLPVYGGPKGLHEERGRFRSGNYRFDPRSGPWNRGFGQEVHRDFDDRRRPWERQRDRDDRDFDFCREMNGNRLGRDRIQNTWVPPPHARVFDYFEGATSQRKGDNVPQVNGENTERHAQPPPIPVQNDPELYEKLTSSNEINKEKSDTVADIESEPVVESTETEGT", "UniProt O00422": "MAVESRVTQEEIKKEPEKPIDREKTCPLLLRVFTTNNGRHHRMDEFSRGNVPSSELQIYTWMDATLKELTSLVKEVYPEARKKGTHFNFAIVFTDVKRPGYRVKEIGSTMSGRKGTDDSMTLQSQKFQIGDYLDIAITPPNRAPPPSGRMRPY", "UniProt Q14108": "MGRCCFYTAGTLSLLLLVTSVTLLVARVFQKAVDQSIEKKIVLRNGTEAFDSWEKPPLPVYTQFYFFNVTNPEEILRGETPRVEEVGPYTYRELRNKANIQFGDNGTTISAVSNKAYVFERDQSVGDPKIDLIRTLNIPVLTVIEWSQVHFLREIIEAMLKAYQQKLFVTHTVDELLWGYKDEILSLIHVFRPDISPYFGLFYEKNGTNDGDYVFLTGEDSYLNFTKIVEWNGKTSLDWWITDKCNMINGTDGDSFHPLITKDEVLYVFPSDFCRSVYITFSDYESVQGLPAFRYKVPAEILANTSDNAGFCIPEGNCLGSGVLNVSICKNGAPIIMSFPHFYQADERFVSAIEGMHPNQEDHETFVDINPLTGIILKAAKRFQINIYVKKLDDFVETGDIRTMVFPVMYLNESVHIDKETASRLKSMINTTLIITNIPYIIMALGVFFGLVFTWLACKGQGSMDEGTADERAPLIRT", "UniProt Q96IZ7": "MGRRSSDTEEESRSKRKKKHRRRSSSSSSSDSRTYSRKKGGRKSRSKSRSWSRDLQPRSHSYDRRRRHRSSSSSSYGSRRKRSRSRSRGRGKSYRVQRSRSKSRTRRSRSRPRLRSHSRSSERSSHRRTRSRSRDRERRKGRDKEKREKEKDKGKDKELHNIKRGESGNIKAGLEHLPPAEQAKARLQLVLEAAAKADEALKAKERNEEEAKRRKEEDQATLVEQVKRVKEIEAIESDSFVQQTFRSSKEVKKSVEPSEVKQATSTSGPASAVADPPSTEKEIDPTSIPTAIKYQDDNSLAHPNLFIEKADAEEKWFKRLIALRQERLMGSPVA", "UniProt Q8WWV3": "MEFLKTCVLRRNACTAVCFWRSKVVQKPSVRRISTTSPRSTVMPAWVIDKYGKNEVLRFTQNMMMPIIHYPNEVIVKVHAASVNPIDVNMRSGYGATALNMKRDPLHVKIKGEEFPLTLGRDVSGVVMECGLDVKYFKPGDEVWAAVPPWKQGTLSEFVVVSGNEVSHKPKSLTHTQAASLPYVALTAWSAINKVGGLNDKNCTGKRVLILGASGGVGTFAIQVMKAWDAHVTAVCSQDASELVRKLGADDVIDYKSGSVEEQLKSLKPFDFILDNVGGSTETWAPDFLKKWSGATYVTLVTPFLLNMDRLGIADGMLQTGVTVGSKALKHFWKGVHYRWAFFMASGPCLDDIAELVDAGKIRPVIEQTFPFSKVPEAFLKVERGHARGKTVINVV", "UniProt Q9NX18": "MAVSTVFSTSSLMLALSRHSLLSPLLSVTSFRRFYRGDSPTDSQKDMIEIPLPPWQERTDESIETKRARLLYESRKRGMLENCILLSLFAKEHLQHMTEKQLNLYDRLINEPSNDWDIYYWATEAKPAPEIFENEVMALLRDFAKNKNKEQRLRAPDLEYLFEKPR", "UniProt Q6NW29": "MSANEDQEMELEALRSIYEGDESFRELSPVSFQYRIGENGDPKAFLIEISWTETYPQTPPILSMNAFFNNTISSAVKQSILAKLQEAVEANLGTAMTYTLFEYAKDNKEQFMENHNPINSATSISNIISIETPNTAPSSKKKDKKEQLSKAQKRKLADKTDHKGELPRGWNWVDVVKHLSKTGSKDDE", "UniProt Q15424": "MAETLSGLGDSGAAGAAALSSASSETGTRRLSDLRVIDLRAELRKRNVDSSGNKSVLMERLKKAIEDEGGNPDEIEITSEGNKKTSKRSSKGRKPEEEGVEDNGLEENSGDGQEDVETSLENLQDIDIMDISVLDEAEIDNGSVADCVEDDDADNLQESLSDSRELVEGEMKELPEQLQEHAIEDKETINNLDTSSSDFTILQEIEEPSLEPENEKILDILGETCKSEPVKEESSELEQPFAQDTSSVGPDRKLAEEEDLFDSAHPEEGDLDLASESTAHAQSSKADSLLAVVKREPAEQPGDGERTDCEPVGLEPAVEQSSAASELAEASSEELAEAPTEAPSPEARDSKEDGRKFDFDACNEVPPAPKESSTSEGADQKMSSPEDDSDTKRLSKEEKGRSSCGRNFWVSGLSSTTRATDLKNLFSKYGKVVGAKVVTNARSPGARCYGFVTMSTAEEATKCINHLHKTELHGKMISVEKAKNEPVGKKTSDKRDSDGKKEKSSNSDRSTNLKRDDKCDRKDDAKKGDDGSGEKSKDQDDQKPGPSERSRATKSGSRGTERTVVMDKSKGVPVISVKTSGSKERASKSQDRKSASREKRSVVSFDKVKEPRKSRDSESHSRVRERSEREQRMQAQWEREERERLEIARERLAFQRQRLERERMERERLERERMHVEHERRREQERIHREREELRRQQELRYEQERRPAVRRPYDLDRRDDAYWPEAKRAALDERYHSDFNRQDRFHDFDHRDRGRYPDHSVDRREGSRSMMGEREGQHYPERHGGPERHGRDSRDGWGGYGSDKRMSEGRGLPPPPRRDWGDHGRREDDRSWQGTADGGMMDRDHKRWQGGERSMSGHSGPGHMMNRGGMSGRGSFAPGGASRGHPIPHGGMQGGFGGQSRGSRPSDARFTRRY", "UniProt Q9Y3I0": "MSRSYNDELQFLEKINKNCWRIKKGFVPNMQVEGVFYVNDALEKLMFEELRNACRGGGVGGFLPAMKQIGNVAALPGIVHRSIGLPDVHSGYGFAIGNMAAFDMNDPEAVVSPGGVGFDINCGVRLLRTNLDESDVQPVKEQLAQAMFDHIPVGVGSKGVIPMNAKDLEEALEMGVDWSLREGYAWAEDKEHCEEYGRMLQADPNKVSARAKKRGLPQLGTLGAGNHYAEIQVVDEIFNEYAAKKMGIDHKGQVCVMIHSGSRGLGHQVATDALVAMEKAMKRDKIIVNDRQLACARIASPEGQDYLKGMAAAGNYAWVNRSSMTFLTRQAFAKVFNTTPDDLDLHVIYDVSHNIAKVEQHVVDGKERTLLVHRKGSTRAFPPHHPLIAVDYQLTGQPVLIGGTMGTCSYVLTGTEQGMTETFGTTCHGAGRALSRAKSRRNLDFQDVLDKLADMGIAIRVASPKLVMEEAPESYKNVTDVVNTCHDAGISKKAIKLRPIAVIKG", "UniProt Q9BY50": "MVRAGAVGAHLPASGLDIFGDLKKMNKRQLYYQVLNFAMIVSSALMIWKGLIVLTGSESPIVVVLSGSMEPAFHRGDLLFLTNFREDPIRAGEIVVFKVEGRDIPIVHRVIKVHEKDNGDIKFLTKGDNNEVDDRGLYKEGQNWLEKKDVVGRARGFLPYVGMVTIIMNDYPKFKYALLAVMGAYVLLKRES", "UniProt P25815": "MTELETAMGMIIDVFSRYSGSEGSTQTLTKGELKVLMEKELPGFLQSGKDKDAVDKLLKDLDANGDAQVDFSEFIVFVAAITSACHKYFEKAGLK", "UniProt Q9Y6U3": "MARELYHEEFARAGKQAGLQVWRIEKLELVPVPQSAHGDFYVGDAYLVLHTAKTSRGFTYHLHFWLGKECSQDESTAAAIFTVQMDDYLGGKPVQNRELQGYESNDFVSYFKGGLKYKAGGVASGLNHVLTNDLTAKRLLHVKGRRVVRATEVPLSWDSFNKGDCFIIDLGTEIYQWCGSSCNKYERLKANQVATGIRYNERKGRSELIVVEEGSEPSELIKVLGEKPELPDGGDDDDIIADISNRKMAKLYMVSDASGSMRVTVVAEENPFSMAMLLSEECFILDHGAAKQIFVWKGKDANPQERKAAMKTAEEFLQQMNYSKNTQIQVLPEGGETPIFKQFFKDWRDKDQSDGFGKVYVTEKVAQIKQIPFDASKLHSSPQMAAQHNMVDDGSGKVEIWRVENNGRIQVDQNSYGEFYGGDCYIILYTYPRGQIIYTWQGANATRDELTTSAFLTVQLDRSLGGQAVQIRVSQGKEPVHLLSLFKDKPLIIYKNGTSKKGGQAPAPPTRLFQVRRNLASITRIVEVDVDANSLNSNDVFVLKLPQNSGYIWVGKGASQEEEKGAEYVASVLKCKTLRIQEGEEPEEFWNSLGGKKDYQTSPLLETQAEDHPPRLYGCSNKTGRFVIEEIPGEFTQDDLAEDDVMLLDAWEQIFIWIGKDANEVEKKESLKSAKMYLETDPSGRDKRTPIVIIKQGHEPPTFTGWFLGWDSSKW", "UniProt Q9BY42": "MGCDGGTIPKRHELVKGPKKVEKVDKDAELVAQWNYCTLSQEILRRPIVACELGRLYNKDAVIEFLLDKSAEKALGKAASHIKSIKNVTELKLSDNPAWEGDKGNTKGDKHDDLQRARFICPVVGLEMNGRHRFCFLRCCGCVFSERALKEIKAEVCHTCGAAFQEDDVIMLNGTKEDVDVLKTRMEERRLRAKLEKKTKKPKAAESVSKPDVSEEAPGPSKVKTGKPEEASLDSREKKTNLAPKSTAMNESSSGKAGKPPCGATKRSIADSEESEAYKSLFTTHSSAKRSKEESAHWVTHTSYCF", "UniProt O43819": "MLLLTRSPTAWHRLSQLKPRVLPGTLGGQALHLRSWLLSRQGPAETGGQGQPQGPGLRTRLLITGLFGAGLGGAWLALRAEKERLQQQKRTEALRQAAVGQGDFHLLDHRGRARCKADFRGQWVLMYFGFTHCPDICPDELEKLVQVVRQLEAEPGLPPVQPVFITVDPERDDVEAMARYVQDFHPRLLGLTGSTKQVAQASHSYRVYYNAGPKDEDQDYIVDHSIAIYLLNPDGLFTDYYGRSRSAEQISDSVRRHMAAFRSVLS"}, "source": "the supplement of paper PMC10849652", "note": "Some of the results follow.", "data": [{"compound": "O=C1NC(=O)C(c2cnc3ccccn23)=C1c1cn2c3c(cc(F)cc13)CN(C(=O)N1CCCCC1)CC2", "assay": "log2 fold change, soluble protein after heating vs DMSO (PISA); higher = thermal stabilisation; K562 cells, 10 uM, 30 min; active = over 0.2 and 3.5 SD of the protein, either way, in both replicates (recomputed)", "method_in_brief": "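Values are thermal stability changes relative to control samples and are taken from duplicates. They are stated as log2 fold changes. Before quantification by TMTpro 16plex LC-MS/MS with equalised channel sums, K562 cells at 2×10^6 cells/mL were treated with 10 μM compound for 30 min, heated in aliquots for 3 min across 48°C-58°C, pooled, extracted in PBS with 0.5% NP-40 at 4°C, and centrifuged at 21,000xg for 90 min to give the soluble supernatant.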", "values": [{"target": "S100A11 (UniProt P31949)", "log2 fold change": "inactive: -0.102"}, {"target": "SASH1 (UniProt O94885)", "log2 fold change": "inactive: 0.008"}, {"target": "RRP36 (UniProt Q96EU6)", "log2 fold change": "inactive: 0.264"}, {"target": "SEC11A isoform 3 (UniProt P67812)", "log2 fold change": "inactive: -0.028"}, {"target": "SCAF8 isoform 2 (UniProt Q9UPN6)", "log2 fold change": "inactive: -0.098"}, {"target": "RSBN1 (UniProt Q5VWQ0)", "log2 fold change": "inactive: 0.263"}, {"target": "SAP18 isoform 2 (UniProt O00422)", "log2 fold change": "inactive: 0.135"}, {"target": "SCARB2 (UniProt Q14108)", "log2 fold change": "inactive: 0.025"}, {"target": "RSRC1 (UniProt Q96IZ7)", "log2 fold change": "inactive: -0.029"}, {"target": "SEC23IP (UniProt Q9Y6Y8)", "log2 fold change": "inactive: -0.058"}, {"target": "SCYL2 (UniProt Q6P3W7)", "log2 fold change": "inactive: -0.007"}, {"target": "RWDD1 (UniProt Q9H446)", "log2 fold change": "inactive: -0.001"}, {"target": "RTN4IP1 (UniProt Q8WWV3)", "log2 fold change": "inactive: 0.079"}, {"target": "SDHAF2 (UniProt Q9NX18)", "log2 fold change": "inactive: -0.101"}, {"target": "SCFD2 (UniProt Q8WU76)", "log2 fold change": "inactive: -0.003"}, {"target": "S100PBP (UniProt Q96BU1)", "log2 fold change": "inactive: 0.049"}, {"target": "RWDD4 (UniProt Q6NW29)", "log2 fold change": "inactive: 0.055"}, {"target": "SAFB isoform 3 (UniProt Q15424)", "log2 fold change": "inactive: 0.101"}, {"target": "RTCB (UniProt Q9Y3I0)", "log2 fold change": "inactive: 0.066"}, {"target": "SDHC (UniProt Q99643)", "log2 fold change": "inactive: 0"}, {"target": "SDHAF3 (UniProt Q9NRP4)", "log2 fold change": "inactive: -0.021"}, {"target": "SAR1B (UniProt Q9Y6B6)", "log2 fold change": "inactive: -0.046"}, {"target": "SBDS (UniProt Q9Y3A5)", "log2 fold change": "inactive: -0.134"}, {"target": "SEC11C (UniProt Q9BY50)", "log2 fold change": "inactive: -0.028"}, {"target": "S100P (UniProt P25815)", "log2 fold change": "inactive: -0.208"}, {"target": "SCIN (UniProt Q9Y6U3)", "log2 fold change": "inactive: -0.035"}, {"target": "RTF2 (UniProt Q9BY42)", "log2 fold change": "inactive: -0.189"}, {"target": "SCG3 (UniProt Q8WXD2)", "log2 fold change": "inactive: 0.018"}, {"target": "SCO2 (UniProt O43819)", "log2 fold change": "inactive: -0.092"}, {"target": "SCAMP1 (UniProt O15126)", "log2 fold change": "inactive: -0.056"}, {"target": "SCAMP3 (UniProt O14828)", "log2 fold change": "inactive: -0.053"}, {"target": "RRP12 (UniProt Q5JTH9)", "log2 fold change": "inactive: 0.119"}]}]}
